The other results are listed elsewhere or left out. These are further read-outs of the screen, such as a control signal, another cell line or another target. No call is given for them. Compounds called inactive in the main read-out are mostly missing here. The note in brackets gives the kind of curve behind each potency; many fits are weak.

A short description of the assay: qHTS Assay for Identifying the Cell-Membrane Permeable IMPase Inhibitors. The note with it: CHO-M1 cells, IP1 accumulation, HTRF TR-FRET ratio; measured here: donor channel 620 nm AC50. The source says: NCGC IMPase Assay Overview
Lithium has been widely used for the treatment of bipolar disorder. But lithium has a narrow therapeutic index and it can cause side effects such as thirst, weight gain, tremor, polyuria and memory problems. Although the mechanism for lithium action in treatment of bipolar disorder is still not fully understood, inhibition of inositol monophosphatase (IMPase) and the subsequent depletion of the inositol pool in living cells have been implicated as the primary therapeutic benefit of lithium therapy. Therefore, a selective IMPase inhibitor with reduced side effects might be a good drug candidate to replace lithium for the treatment of bipolar disorder. Several IMPase inhibitors have been discovered previously. However, they are not suitable for therapeutic use because of their poor cell membrane penetrability or oral bioavailability; the development of new cell-permeable IMPase inhibitors is needed.
IMPase catalyzes the hydrolysis of inositol-1-phosphate (IP1) to release free inositol. Binding of an agonist to a Gq coupled GPCR results in the activation of PLC, which hydrolyzes the PIP2 to form inositol-1,4,5-trisphosphate (IP3) and diacyl glycerol (DAG). While DAG activates protein kinase C (PKC), IP3 triggers the elevation of intracellular free Ca2+. The IP3 is very rapidly inactivated by hydrolysis to IP2, IP1 and then inositol by a series of enzymes including IMPase. Free inositols are used for synthesis of PI and thus start another inositol cycle.
To identify new cell-permeable IMPase inhibitors, we developed a cell-based IMPase assay in which the cytosolic IP1 is measured by a time-resolved fluorescence resonance energy transfer (TR-FRET) assay. In this assay, an IP1 specific antibody is used to detect the labeled IP1 tracer. When the cell lysate contains the elevated IP1 due to the inhibition of IMPase, the TR-FRET between the labeled antibody and IP1 tracer is disrupted resulting in a reduction in the total signal. Since the TR-FRET is used, this cell-based assay is a homogenous assay without cell wash and medium change that is suitable for assay miniaturization and HTS.
NCGC IMPase Assay Protocol Summary
A Chinese hamster ovary (CHO) cell line stably expressing the M1 receptor (CHO-M1) was obtained from ATCC and maintained in F-12 Kaighn's media (Invitrogen, Carlsbad, CA, 21127) supplemented with 10 % FBS, 100 units/ml penicillin, 100 ug/ml streptomycin and 250 ug/ml geneticin at 37C, 5% CO2 in a humidified atmosphere. Before the assay, aliquots of cells were frozen and stored at -135C. The assay was performed in 1536-well format. Data are reported for both the ratio of the two emission wavelengths, and also for the component 'donor' channel, Em2=620. […] AC50 values were determined from concentration-response data modeled with the standard Hill equation.
IMPase 1536-well assay protocol:
(1) Plate 4 ul/well (2000 cells) of cell suspension from frozen CHO-M1 Cells in white, tissue culture treated 1536-well plates that are cultured at 37C, 5 % CO2 for 16 to 30 hours.
(2) Add 23 nl/well of compound in DMSO solution. The final titration for each compound was between 0.6 nM and 46 uM.
(3) Add 1 ul of carbachol (50 uM in stimulation buffer containing10mM HEPES, 1mM CaCl2, 0.5 mM MgCl2, 4.2 mM KCl, 146 mM NaCl, 5.5 mM glucose, 50mM LiCl, pH 7.4.
(4) Incubation at 37C, 5 % CO2 for 30 min.
(5) Add 1 ul/well of d2-conjugated IP1 (d2-IP1) and 1 ul/well of Eu+ cryptate conjugated anti-IP1 antibody (Eu+-Ab) prepared in the cell lysis buffer, both from the IP-One kit (Cisbio, MA).
(6) Incubate at room temperature for 10 minutes.
(7) Detect the assay plate (Ex = 320, Em1 =665 and Em2 620) in a ViewLux plate reader.
inositol monophosphatase, IMPase, IMPase inhibitor, lithium, bipolar disorder, IP-One, HTRF, qHTS, NIH roadmap, NCGC
Note: In the gene ID and protein GI references for this assay, rat IMPase is referenced instead of hampster as hamster accession numbers were not available.
(In general: qHTS replaces the single test concentration by a dilution series.)
A word on the AC50: it is the midpoint of the concentration-response curve, whichever way the signal moves. Regarding `CC1CCc2nn(CC(=O)NCCN3CCCCC3C)cc2C1` (stereo not drawn), the concentration at half-maximal activity (AC50) was 1260 nM [falling, full curve, poor fit].

As to `CCn1c(Cc2ccccc2)nnc1SCC(=O)Nc1nc2ccccc2s1`, the concentration at half-maximal activity (AC50) was 31600 nM [rising, single point].

Take `COc1ccc(OC)c2c(N3CC(C)OC(C)C3)cc(C(F)(F)F)nc12` (stereo not drawn): the AC50 was 3160 nM [falling, full curve, poor fit].

For the compound `CCN1CCN(Cc2c(O)ccc3c(=O)c(-c4ccc(OC)c(OC)c4)c(C(F)(F)F)oc23)CC1`, the AC50 was 316 nM [rising, full curve, poor fit].

In the case of `O=C1SC(SCc2ccccc2)=N/C1=C\c1ccco1`, the concentration at half-maximal activity (AC50) is 794 nM [falling, single point].

As to `CC1CCN(C(=O)Cn2c(SCC(=O)Nc3nccs3)nc3ccccc32)CC1`, the concentration at half-maximal activity (AC50) was 20 nM [falling, full curve, poor fit].

With `Cn1c(=O)[nH]c(=O)c2[nH]c(N(Cc3ccccc3)Cc3ccccc3)nc21`, the concentration at half-maximal activity (AC50) was 44.7 nM [falling, full curve].

`COCCNC(=O)NC1(C(F)(F)F)Oc2ccc(Cl)cc2O1` (stereo not drawn): the half-maximal activity concentration (AC50) is 50.1 nM [falling, full curve, poor fit].

Turning to `O=C(NCc1cccs1)c1cc(C2CC2)on1`, the half-maximal activity concentration (AC50) is 447 nM [falling, full curve, poor fit].

Take `CC(=O)c1c(C)nc(C)nc1NC(=O)Cc1ccccc1`: the concentration at half-maximal activity (AC50) was 10 nM [falling, full curve, poor fit].

With `COc1cccc(C(=O)CN2CCC(NC(=O)NC3CCCCC3)CC2)c1`, the concentration at half-maximal activity (AC50) is 4470 nM [falling, full curve, poor fit].

Take `CC(C)c1cc(C(=O)Nc2cc(Cl)ccc2O)no1`: the concentration at half-maximal activity (AC50) was 316 nM [falling, full curve, poor fit].

`Nc1c(C(=O)Nc2ccccc2)sc2nc3c(c(-c4ccco4)c12)CCC3`: the AC50 is 31.6 nM [rising, full curve, poor fit].

`N#CC(=C=[N-])C1=C(C#N)C(c2ccccc2F)C([n+]2ccccc2)C(O)(C2CC2)N1` (stereo not drawn): the half-maximal activity concentration (AC50) is 15800 nM [rising, single point].

With `O=C(NC1CCCC1)C1CCCN(S(=O)(=O)c2cccc3cccnc23)C1` (stereo not drawn), the AC50 is 35500 nM [falling, single point].

Regarding `CCCOC1(NC(=O)c2ccccc2)C(C)=CC(=O)C=C1C`, the concentration at half-maximal activity (AC50) is 39800 nM [falling, partial curve, poor fit].

On to `O=C(NCCN1CCOCC1)C1CC(=O)N(c2ccc(F)c(Cl)c2)C1` (stereo not drawn), for which the concentration at half-maximal activity (AC50) was 3.98 nM [falling, full curve, poor fit].

On to `Cc1ccc(C(C(=O)NC2CCCCC2)N2CCCC2)cc1` (stereo not drawn), for which the half-maximal activity concentration (AC50) is 3160 nM [falling, single point].

For the origin of these results see PubChem BioAssay AID901 (National Center for Advancing Translational Sciences (NCATS), 2007).
